One experiment addresses T1, NeYFP:SPL11m (rice) (UniProt Q0IMG9).
T1 sequence: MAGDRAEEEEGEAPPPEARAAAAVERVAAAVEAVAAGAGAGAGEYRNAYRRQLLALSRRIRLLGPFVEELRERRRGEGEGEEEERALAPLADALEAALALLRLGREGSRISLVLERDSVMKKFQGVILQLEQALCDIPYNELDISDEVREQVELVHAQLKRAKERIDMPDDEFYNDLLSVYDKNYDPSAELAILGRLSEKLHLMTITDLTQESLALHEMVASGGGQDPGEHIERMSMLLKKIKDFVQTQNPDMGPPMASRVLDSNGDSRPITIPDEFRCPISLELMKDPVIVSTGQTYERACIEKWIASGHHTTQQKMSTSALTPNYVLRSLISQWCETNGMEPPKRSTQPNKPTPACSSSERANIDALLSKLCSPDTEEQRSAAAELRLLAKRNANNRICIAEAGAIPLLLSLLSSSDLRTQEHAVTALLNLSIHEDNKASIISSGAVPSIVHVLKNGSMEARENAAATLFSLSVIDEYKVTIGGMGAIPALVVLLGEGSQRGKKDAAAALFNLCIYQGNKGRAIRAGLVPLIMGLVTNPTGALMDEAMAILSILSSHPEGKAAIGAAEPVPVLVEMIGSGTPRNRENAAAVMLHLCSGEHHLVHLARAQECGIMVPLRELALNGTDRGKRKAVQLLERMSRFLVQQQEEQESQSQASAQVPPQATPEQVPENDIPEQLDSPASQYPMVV
Put plainly: split reporter; BiFC with NeYFP and CeYFP fusions co-expressed by agroinfiltration in N. benthamiana leaves, confocal microscopy.

The target of a further experiment is T2, GST:SPL11 (rice) (UniProt Q0IMG9).
T2 sequence: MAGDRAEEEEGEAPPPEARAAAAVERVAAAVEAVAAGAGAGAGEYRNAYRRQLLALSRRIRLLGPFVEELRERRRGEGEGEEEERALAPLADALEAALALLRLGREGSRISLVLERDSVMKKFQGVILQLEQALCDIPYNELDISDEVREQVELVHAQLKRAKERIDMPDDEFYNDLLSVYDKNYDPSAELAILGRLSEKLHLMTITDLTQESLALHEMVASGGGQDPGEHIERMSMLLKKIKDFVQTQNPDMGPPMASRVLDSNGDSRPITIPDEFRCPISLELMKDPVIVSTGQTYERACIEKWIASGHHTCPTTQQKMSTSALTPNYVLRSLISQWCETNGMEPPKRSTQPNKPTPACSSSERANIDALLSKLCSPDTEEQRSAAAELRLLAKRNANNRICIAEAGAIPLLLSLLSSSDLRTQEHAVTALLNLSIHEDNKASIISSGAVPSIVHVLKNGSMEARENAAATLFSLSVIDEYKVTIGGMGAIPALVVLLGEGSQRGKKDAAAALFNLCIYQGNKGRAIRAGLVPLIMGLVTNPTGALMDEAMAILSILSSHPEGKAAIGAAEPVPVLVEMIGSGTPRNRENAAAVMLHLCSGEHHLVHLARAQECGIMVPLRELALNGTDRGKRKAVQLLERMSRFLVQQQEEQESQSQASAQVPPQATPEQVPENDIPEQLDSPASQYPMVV
Put plainly: pull-down; purified GST fusions of SPL11 or its ARM domain as bait; SPIN6 in vitro translated in rabbit reticulocyte lysate, detected with streptavidin-HRP; only the target purified.

The target of experiment [1] is T3, SPL11, full length, yeast two-hybrid fusion (rice) (UniProt Q0IMG9).
T3 sequence: T2 sequence
Kind of experiment: two-hybrid; ProQuest system (Invitrogen), BD vector pDBLeu and AD vector pPC86, yeast strain Mav203, growth on SD-Leu-Trp-His with 0 mM or 40 mM 3AT.

Results are given in words; binding and its absence hold for the method and conditions named. For part of these data: In cells and extracts the contact can be indirect. For part of these data: Binding can be weak; no strength is given. For part of these data: Tags and fused reporters may be left off the sequences shown.

Turning to SPIN6:CeYFP (rice), the binding result in the experiment with NeYFP:SPL11m (rice) is on record as “binds”.
Regarding His:SPIN6, in vitro translated (rice), the binding result with GST:SPL11 (rice) is “binds”.
Turning to “SPIN6 homolog RhoGAP protein Os03g24180, yeast two-hybrid fusion (rice)”, the binding result in experiment [1] is listed as “no binding”.

These data come from paper PMC4450066.
